Experimental data: paper PMC12219410

T1: mCherry::DRSH-1 (C. elegans) (UniProt O01326)
T1 sequence: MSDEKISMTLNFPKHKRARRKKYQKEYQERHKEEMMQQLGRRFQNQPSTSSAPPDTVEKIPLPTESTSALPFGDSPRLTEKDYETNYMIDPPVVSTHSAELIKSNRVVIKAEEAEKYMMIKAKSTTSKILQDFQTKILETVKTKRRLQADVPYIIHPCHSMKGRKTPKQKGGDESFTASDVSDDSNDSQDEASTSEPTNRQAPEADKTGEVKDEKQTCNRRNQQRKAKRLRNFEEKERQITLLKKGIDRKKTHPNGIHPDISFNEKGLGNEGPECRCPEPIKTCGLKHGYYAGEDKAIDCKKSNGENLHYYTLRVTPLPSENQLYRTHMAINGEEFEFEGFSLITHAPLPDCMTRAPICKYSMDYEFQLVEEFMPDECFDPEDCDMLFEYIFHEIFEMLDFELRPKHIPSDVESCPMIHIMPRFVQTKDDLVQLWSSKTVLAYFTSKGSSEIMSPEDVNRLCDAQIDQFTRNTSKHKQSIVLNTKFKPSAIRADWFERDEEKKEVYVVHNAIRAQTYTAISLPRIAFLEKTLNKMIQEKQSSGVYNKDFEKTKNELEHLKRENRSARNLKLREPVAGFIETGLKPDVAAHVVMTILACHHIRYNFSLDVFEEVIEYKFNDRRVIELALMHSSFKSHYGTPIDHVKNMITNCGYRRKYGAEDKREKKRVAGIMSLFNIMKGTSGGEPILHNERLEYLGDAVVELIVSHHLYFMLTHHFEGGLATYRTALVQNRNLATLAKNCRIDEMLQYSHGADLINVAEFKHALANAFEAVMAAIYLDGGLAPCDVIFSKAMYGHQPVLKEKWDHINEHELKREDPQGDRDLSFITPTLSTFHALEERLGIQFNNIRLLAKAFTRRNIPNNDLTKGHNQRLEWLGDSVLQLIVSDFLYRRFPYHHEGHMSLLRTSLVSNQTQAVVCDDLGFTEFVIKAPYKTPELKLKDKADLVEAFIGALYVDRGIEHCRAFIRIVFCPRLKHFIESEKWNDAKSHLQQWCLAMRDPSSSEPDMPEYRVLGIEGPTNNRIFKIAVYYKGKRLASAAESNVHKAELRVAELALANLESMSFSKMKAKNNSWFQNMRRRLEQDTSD


Columns and labels:
[1] = target: T1, mCherry::DRSH-1 (C. elegans); assay: affinity purification with mass spectrometry; mCherry::DRSH-1 precipitated from gravid adult lysate with RFP-Trap magnetic agarose beads overnight at 4 °C; 25 mM Tris HCl pH 7.5, 150 mM NaCl, 1.5 mM MgCl2, 1 mM DTT, 0.1% Triton X-100; compared with wild-type animals; 4 biological replicates
[2] = target: PASH-1::GFP (C. elegans); assay: affinity purification with mass spectrometry; PASH-1::GFP or PASH-1[G179R]::GFP precipitated from gravid adult lysate with GFP-Trap magnetic agarose beads overnight at 4 °C; 25 mM Tris HCl pH 7.5, 150 mM NaCl, 1.5 mM MgCl2, 1 mM DTT, 0.1% Triton X-100; compared with wild-type animals; 4 biological replicates
[3] = target: PASH-1[G179R]::GFP (C. elegans); assay: as above

| binding [1] | binding [2] | binding [3] | Molecule |
| --- | --- | --- | --- |
| binds | – | – | PASH-1 (C. elegans (endogenous in C. elegans)) |
| – | binds | binds | DRSH-1 (enzyme, UniProt O01326 1-1086) MSDEKISMTLNFPKHKRARRKKYQKEYQERHKEEMMQQLGRRFQNQPSTSSAPPDTVEKIPLPTESTSALPFGDSPRLTEKDYETNYMIDPPVVSTHSAELIKSNRVVIKAEEAEKYMMIKAKSTTSKILQDFQTKILETVKTKRRLQADVPYIIHPCHSMKGRKTPKQKGGDESFTASDVSDDSNDSQDEASTSEPTNRQAPEADKTGEVKDEKQTCNRRNQQRKAKRLRNFEEKERQITLLKKGIDRKKTHPNGIHPDISFNEKGLGNEGPECRCPEPIKTCGLKHGYYAGEDKAIDCKKSNGENLHYYTLRVTPLPSENQLYRTHMAINGEEFEFEGFSLITHAPLPDCMTRAPICKYSMDYEFQLVEEFMPDECFDPEDCDMLFEYIFHEIFEMLDFELRPKHIPSDVESCPMIHIMPRFVQTKDDLVQLWSSKTVLAYFTSKGSSEIMSPEDVNRLCDAQIDQFTRNTSKHKQSIVLNTKFKPSAIRADWFERDEEKKEVYVVHNAIRAQTYTAISLPRIAFLEKTLNKMIQEKQSSGVYNKDFEKTKNELEHLKRENRSARNLKLREPVAGFIETGLKPDVAAHVVMTILACHHIRYNFSLDVFEEVIEYKFNDRRVIELALMHSSFKSHYGTPIDHVKNMITNCGYRRKYGAEDKREKKRVAGIMSLFNIMKGTSGGEPILHNERLEYLGDAVVELIVSHHLYFMLTHHFEGGLATYRTALVQNRNLATLAKNCRIDEMLQYSHGADLINVAEFKHALANAFEAVMAAIYLDGGLAPCDVIFSKAMYGHQPVLKEKWDHINEHELKREDPQGDRDLSFITPTLSTFHALEERLGIQFNNIRLLAKAFTRRNIPNNDLTKGHNQRLEWLGDSVLQLIVSDFLYRRFPYHHEGHMSLLRTSLVSNQTQAVVCDDLGFTEFVIKAPYKTPELKLKDKADLVEAFIGALYVDRGIEHCRAFIRIVFCPRLKHFIESEKWNDAKSHLQQWCLAMRDPSSSEPDMPEYRVLGIEGPTNNRIFKIAVYYKGKRLASAAESNVHKAELRVAELALANLESMSFSKMKAKNNSWFQNMRRRLEQDTSD |

No constants are given. Whether binding was seen depends on the method and setting. Binding seen in cells or lysates may run through a third protein. A yes stands for co-enrichment or nearness to the bait. Other partners may have been found.
